# In all, about 390,000 compounds went through this assay and about 760 (0.19%) were called active. The inconclusive results got no clear call from the source; some entries with a clear call stand among them for comparison. The call rests on the fitted dose curve; in most records, active means well fitted inhibition curve with a large enough effect; inconclusive means small, poorly fitted or top-dose-only effect; inactive means flat fitted curve, though single readings scatter. Potencies beside an inconclusive call are fits to weak or partial responses and may not hold up.
# Assay: qHTS for Inhibitors of Vif-A3F Interactions: qHTS; further: nearly all actives have a fitted effect of over 65% in size; on activity, negative = active: % of control where 0% means no effect
# Details: HeLa A3F-eYFP + Vif (tagged APOBEC3F with the HIV-1 protein that degrades it), YFP fluorescence increase; series mostly up to 46.1 µM; activity, negative = active: at the top concentration
# Outline: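 Fluorescence increase (Ex 488/Em 500-530) after overnight compound treatment at 37 deg C flags inhibition of Vif-driven A3F-eYFP loss in stable HeLa A3F-eYFP/Vif cells seeded overnight beforehand.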
# Potency means the concentration at half of the fitted maximal effect.
SMILES,Potency,"activity, negative = active"
COc1ccc(Nc2nc3ccccc3n3nnnc23)cc1,"inconclusive: 28.2 µM [inhibitor, single point]",
COc1cc(SC)ccc1C(=O)N1CCN(c2ccc(O)cc2)CC1,,inactive: -3.49%
CCN(Cc1ccccc1)C(=O)CN1C(=S)NC(C)(C)CC1C (stereo unspecified),"inconclusive: 35.5 µM [inhibitor, single point]",
CCCSC1=C(C#N)C(c2cccnc2)C(C(=O)OCC)=C(c2ccccc2)N1 (stereo unspecified),,inactive: -4.87%
CCn1cc(C(=O)NCc2ccco2)c(=O)c2cc(S(=O)(=O)N3CCCCCC3)ccc21,,inactive: 2.25%
CC(C)(C)NC(=O)NC(=O)CSc1ncc(C(F)(F)F)cc1Cl,,inactive: -5.24%
Cc1cc(C)n2nc(-c3ccsc3-n3c(C)ccc3C)cc2n1,"inconclusive: 25.1 µM [inhibitor, single point]",
COc1ccc(S(=O)(=O)Nc2ccc(F)c(Cl)c2)cc1OC,,inactive: -10.4%
CCCN(C(=O)COC(=O)c1[nH]c(C)c(C(=O)OC)c1C)c1c(N)n(Cc2ccccc2)c(=O)[nH]c1=O,"inconclusive: 35.5 µM [inhibitor, single point]",
COc1cc(NS(=O)(=O)c2ccc(N/C=C(\C#N)c3nc4cc(Cl)ccc4o3)cc2)nc(OC)n1,"inconclusive: 35.5 µM [inhibitor, single point]",
S=C1NC2(CCCCC2)Cc2ccccc21,"inconclusive: 22.4 µM [inhibitor, single point]",
COC1=C/C(=C/c2c(N)n3c(nc2=O)sc2cc(S(C)(=O)=O)ccc23)C=CC1=O,"inconclusive: 20 µM [inhibitor, partial curve, poor fit]",
Cc1c(Cc2ccccc2)sc(/N=C/c2c(O)ccc3ccccc23)c1C(N)=O,active: 8.91 µM,
CC(=O)NC(NC(=S)Nc1ccc(N=Nc2ccccc2)cc1)C(Cl)(Cl)Cl (stereo unspecified),,inactive: -14.6%
O=C(NCC1CCCO1)C(c1ccc(F)cc1)N(Cc1ccc2c(c1)OCO2)C(=O)c1ccc(CN2CCOCC2)o1 (stereo unspecified),"inconclusive: 3.16 µM [inhibitor, single point]",
CCc1ccccc1NC(=O)Cn1c(=O)n(Cc2ccccc2)c(=O)c2c(C)c(C(=O)N(C)C)sc21,,inactive: 0.628%
Cc1ccc(O)c(Nc2nc3ccccc3c3nncn23)c1,"inconclusive: 3.16 µM [inhibitor, partial curve, poor fit]",
Cc1ccc(NC(=O)CSc2nc3c(cc2C#N)C(=O)CCC3)cc1S(=O)(=O)N(C)C,"inconclusive: 10 µM [inhibitor, partial curve, poor fit]",
CCOC(=O)CSc1nc2c(c(=O)[nH]1)C(C)(CC)Cc1ccccc1-2 (stereo unspecified),"inconclusive: 11.2 µM [inhibitor, partial curve]",
O=C(Nc1cccc(S(=O)(=O)C(F)F)c1)c1ccc(S(=O)(=O)N2CCCCC2)cc1,,inactive: 0.904%
CCOc1cc(/C=C2/C(=N)N3N=C(CC)SC3=NC2=O)ccc1OC(=O)c1ccco1,"inconclusive: 10 µM [inhibitor, partial curve, poor fit]",
O=C(N/N=C/c1cccnc1)c1cccc(N2CCCC2=O)c1,,inactive: 5.54%

SMILES,Potency,"activity, negative = active"
Cc1occc1C(=O)NC1CCCN(Cc2ccc(Cl)cc2)C1 (stereo unspecified),"inconclusive: 14.1 µM [inhibitor, single point]",
COc1ccc(/C=C/C(=O)c2c(O)cc(C)oc2=O)c(OC)c1,"inconclusive: 25.1 µM [inhibitor, single point]",
CSc1ccc(/C=C2\CCn3c2nc2cc(C(=O)O)ccc2c3=O)cc1,"inconclusive: 17.8 µM [inhibitor, single point]",
CCN1CCN(C(=O)c2ccc3c(=O)n(CCc4ccccc4)c(=O)[nH]c3c2)CC1,,inactive: -6.68%
CCCCOc1ccc(C(=O)Nc2ccc3c(c2)OCO3)cc1,,inactive: -10.5%
Cc1onc(-c2ccccc2Cl)c1C(=O)N1CCC(C)CC1,"inconclusive: 3.55 µM [inhibitor, partial curve, poor fit]",
CCn1c(=O)c2sccc2n(CC(=O)NC2CCCCC2)c1=O,"inconclusive: 35.5 µM [inhibitor, single point]",
O=C(Cc1ncc(C(F)(F)F)cc1Cl)NNc1cccc(F)n1,"inconclusive: 35.5 µM [inhibitor, single point]",
NC(=O)C1CCN(c2nc3ccccc3nc2NS(=O)(=O)c2ccc(Br)cc2)CC1,active: 25.1 µM,
CSc1ccc(C(=O)C2CCCN(Cc3ccc(N4CCNC4=O)cc3)C2)cc1 (stereo unspecified),,inactive: -7.88%
CN1C(=O)N(C)c2ccc(Br)c3cccc1c23,,inactive: 0.279%
O=C(Nc1cccc2ccccc12)c1ccc(F)cc1,,inactive: 20.5%
C=C(NC(=O)C(=C)NC(=O)c1csc(C2=NC3c4csc(n4)C4NC(=O)c5csc(n5)C(C(C)(O)C(C)O)NC(=O)C5CSC(=N5)/C(=C/C)NC(=O)C(C(C)O)NC(=O)c5csc(n5)C3(CC2)NC(=O)C(C)NC(=O)C(=C)NC(=O)C(=C)NC(=O)C(C(C)C)NC2C=Cc3c(C(C)O)cc(nc3C2O)C(=O)OC4C)n1)C(N)=O (stereo unspecified),"inconclusive: 3.55 µM [inhibitor, partial curve, poor fit]",
O=C(NC(=S)Nc1ccccc1O)c1cncc(Br)c1,"inconclusive: 35.5 µM [inhibitor, partial curve, poor fit]",
CCOC(=O)C1CCCN(C2=NC(=O)/C(=C/c3ccc(O)c(OCC)c3)S2)C1 (stereo unspecified),"inconclusive: 35.5 µM [inhibitor, single point]",
CC(C)CCNC(=O)c1cc2c(=O)[nH]c3ccccc3c2s1,"inconclusive: 22.4 µM [inhibitor, single point]",
Cc1ccc(CN2CCS(=O)(=O)CC2)o1,"inconclusive: 5.62 µM [inhibitor, single point]",
Cc1cnc(C(=O)OCC(=O)Nc2ccc(Br)cc2F)cn1,"inconclusive: 35.5 µM [inhibitor, single point]",
CCN1CCN(C(=O)c2ccc3c(c2)N(Cc2c(F)cccc2Cl)C(=O)c2ccccc2S3)CC1,,inactive: 0.0706%
COC(=O)c1cccc(-n2sc3ccccc3c2=O)c1,,inactive: -8.4%
Cc1ccc(NCC(=O)N=Nc2c(O)[nH]c3ccc([N+](=O)[O-])cc23)cc1,"inconclusive: 6.31 µM [inhibitor, single point]",
CC1CCCCC1NC(=O)COC(=O)C12CC3CC(CC(Cl)(C3)C1)C2 (stereo unspecified),"inconclusive: 2.51 µM [inhibitor, full curve, poor fit]",

# Some of these compounds in order of length of the SMILES, largest number first:
SMILES,Potency,"activity, negative = active"
CCOC(=O)C1CCCN(C2=NC(=O)/C(=C/c3ccc(O)c(OCC)c3)S2)C1 (stereo unspecified),"inconclusive: 35.5 µM [inhibitor, single point]",
CSc1ccc(C(=O)C2CCCN(Cc3ccc(N4CCNC4=O)cc3)C2)cc1 (stereo unspecified),,inactive: -7.88%
CCCCOc1ccc(C(=O)Nc2ccc3c(c2)OCO3)cc1,,inactive: -10.5%

# Next results.

SMILES,Potency,"activity, negative = active"
CC(=O)Nc1ccc(Nc2nc(-c3sc(NC(C)=O)nc3C)cs2)cc1,,inactive: -5.58%
COc1cc(C(=O)OCc2csc(CC(=O)Nc3ccccc3C)n2)ccc1OCC(C)C,"inconclusive: 6.31 µM [inhibitor, single point]",
CN(Cc1ccccc1)C(=O)COC(=O)c1ccc[nH]c1=O,"inconclusive: 1.12 µM [inhibitor, full curve, poor fit]",
Cc1ccccc1NC(=O)c1sc2nc3c(c(-c4ccco4)c2c1N)CCC3,"inconclusive: 20 µM [inhibitor, partial curve, poor fit]",
COc1ccc2noc3c2c1C(=O)c1ccccc1-3,"inconclusive: 6.31 µM [inhibitor, single point]",
COc1cccc(NC(=O)CNC(=O)N2CC(=O)Nc3ccccc32)c1,"inconclusive: 3.16 µM [inhibitor, partial curve, poor fit]",
COc1ccc(OC)c(NC(=O)C2CC(/C=C/c3ccccc3)=NO2)c1 (stereo unspecified),"inconclusive: 5.62 µM [inhibitor, single point]",
CC1CN(CC(O)COC(c2ccc(Cl)cc2)c2ccc(Cl)cc2)CC(C)O1 (stereo unspecified),"inconclusive: 35.5 µM [inhibitor, single point]",
CCc1ccc(CNC(=O)CCn2c(=O)c3cccn3c3ccc(F)cc32)cc1,"inconclusive: 15.8 µM [inhibitor, single point]",
Cn1c(=O)c2cc(S(=O)(=O)NC(C(=O)Nc3cccc(F)c3)c3ccccc3)ccc2n(C)c1=O (stereo unspecified),,inactive: 0.576%
CN(C)CC1CCC/C(=C/c2ccc(Cl)cc2)C1=O (stereo unspecified),"inconclusive: 11.2 µM [inhibitor, partial curve, poor fit]",
O=C1OCC2=C1C(c1ccc3c(c1)OCO3)c1cc3c(cc1O2)OCO3 (stereo unspecified),,inactive: 4.47%
CC1=CC(C)(C)Nc2ccc(OC(=O)CN3C(=O)c4ccccc4C3=O)cc21,"inconclusive: 35.5 µM [inhibitor, single point]",
CC(C)CCN(C(=O)c1csnn1)C(C(=O)NC1CCCC1)c1ccc(F)cc1 (stereo unspecified),,inactive: 10.6%
Oc1ccc(C=NN=C2c3ccccc3-c3ccccc32)c(O)c1,"inconclusive: 12.6 µM [inhibitor, single point]",
CCCCNC(=O)CSc1nc(O)c(Cc2ccc(OC)cc2)c(=O)[nH]1,"inconclusive: 1.41 µM [inhibitor, partial curve, poor fit]",
COc1ccc(-n2nc(C(=O)NCC(=O)Nc3cccc(Cl)c3)c3ccccc3c2=O)cc1OC,"inconclusive: 22.4 µM [inhibitor, single point]",
CCc1ccccc1N1CSC2=C(C#N)C(c3ccccc3F)CC(=O)N2C1 (stereo unspecified),,inactive: -6.66%
COc1ccc(CSCC(=O)Nc2ccccc2)cc1[N+](=O)[O-],"inconclusive: 35.5 µM [inhibitor, single point]",
CCCCn1nc(NC(=O)c2cccs2)c2cc3cc(OC)ccc3nc21,,inactive: -15.5%
C=CCN1C(=O)/C(=c2\sc3nc(=O)c(Cc4ccc(OC)c(OC)c4)nn3c2=O)c2ccccc21,"inconclusive: 6.31 µM [inhibitor, full curve, poor fit]",
Cn1nc(C(F)(F)F)cc1C(=O)O,"inconclusive: 10 µM [inhibitor, partial curve, poor fit]",

# Source: PubChem BioAssay AID602313 (National Center for Advancing Translational Sciences (NCATS), 2012)
